Results are given in words; binding and its absence hold for the method and conditions named. In cells and extracts the contact can be indirect. Some results given as binding are weak or reduced against the parent protein; the word gives no strength.
Experiments:
[1] = target: GST-fusion protein with the ligand-binding domain (LBD) of ERα (residues 246-595) (UniProt P03372); experiment: GST pull-down from extracts of cells overexpressing IEBP, blot with anti-hsp27 antibody (FIG. 6C)
[2] = target: GST-fusion protein with the ligand-binding domain (LBD) of ERα (residues 246-595) (UniProt P03372); experiment: GST pull-down from protein extracts of cells overexpressing IEBP, SDS-PAGE and blot with anti-hsp27 antibody
[3] = target: GST-fusion protein with the ligand-binding domain (LBD) of ERα (residues 246-595) (UniProt P03372); experiment: GST pull-down (FIG. 6C)

Protein sequences, listed by entry. Tags and fused reporters are not part of them. Residues count along the entry.
UniProt P03372, residues 246-595: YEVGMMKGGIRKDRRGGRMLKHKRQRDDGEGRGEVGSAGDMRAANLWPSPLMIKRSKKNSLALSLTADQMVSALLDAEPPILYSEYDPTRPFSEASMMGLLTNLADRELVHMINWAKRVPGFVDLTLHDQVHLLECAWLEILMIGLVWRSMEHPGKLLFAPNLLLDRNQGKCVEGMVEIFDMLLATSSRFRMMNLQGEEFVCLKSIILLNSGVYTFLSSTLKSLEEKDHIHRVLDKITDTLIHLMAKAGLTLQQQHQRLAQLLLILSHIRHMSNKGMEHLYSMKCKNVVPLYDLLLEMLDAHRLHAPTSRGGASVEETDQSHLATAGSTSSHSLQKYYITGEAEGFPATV

Measured: binding

B1: intracellular estradiol binding protein (IEBP) of New World primate B95-8 cells (other)
chain: MTERHVPFSLLQSPSWDPFRDWYPHSHLFDQAFGMPRLPEEWSQWFGTSSWPGYVRPLPPTTVEGPAVAAPAYSRALNQQLSSGVSETADRWRVSLDVNHFAPEELTVKTKDGVVEITGKHEERQDEHGFISRCFTRKYSLPPGVDPTQVSPSLSPEGTLTVDAPMSKPATQSNEITIPVTFESRAQLGGPEAAKSDRSAAK
notes: also called hsp27-like IEBP; hsp 27-related IEBP
binds: all assays above

Source: patent US20050009137A1 (CEDARS SINAI MEDICAL CENTER, published 2005)
